This test is described as follows: qHTS Assay for Lipid Storage Modulators in Drosophila S3 Cells.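 As to cell number change: cells counted by Cell Tracker Red CMTPX staining in the red channel.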 Conditions: BODIPY lipid droplet fluorescence, 18-24 h; for cell number change: measured here: cell count max response, cells fed with added oleic acid. In a few lines: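 Drosophila S3 cells loaded with oleic acid (400 uM, as added) and compounds at several concentrations; lipid droplets imaged by 488-nm laser-scanning cytometry, 500–530 nm intensity and object ratio to cell channel. Percent activity normalized to 20 uM Triacsin C.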
On the technique in general: Quantitative high-throughput screening tests each substance at several concentrations.

Where [1] appears, read: measured here: lipid fluorescence (Fed channel) AC50, cells fed with added oleic acid.
Setting [2] is: measured here: cell number channel AC50, cells fed with added oleic acid.

The other results are listed elsewhere or left out. Further columns of the screen follow, without active or inactive calls. The list favours compounds with an active or inconclusive main result. The note in brackets gives the kind of curve behind each potency; many fits are weak.

By AC50 is commonly meant the concentration giving half of the maximal activity seen. A low value points to activity at low concentration. In the case of `CSCCC(NS(=O)(=O)c1ccc2ccccc2c1)C(=O)O` (stereo not given), the cell number change worked out at 14.4%. Besides, the concentration at half-maximal activity (AC50) under setting [1] is 5.8 µM [falling, single point].
As to `COc1ccc(Cl)cc1C(=O)Nc1ccc(N(C)C(C)=O)cc1`, the cell number change is -21.9%. For the same molecule, the AC50 under setting [2] is 1.84 µM [rising, partial curve, poor fit]. Further, the AC50 under setting [1] is 29.1 µM [rising, single point].
Take `COc1nc(N(C)C)nc(N(C)c2cc(Cl)cc(Cl)c2)n1`: the cell number change was determined as 15.2%. Further, under setting [1], the AC50 was 29.1 µM [rising, single point].
As for `O=C1C(NS(=O)(=O)c2cccs2)=C(N2CCN(c3cccc(C(F)(F)F)c3)CC2)C(=O)c2ccccc21`, the cell number change is -86.1%. Besides, the concentration at half-maximal activity (AC50) under setting [2] is 8.2 µM [falling, partial curve]. Moreover, under setting [1], the AC50 was 29.1 µM [falling, single point].
For `CN(C)C(=O)CCC(=O)N1CCCC(C(=O)c2ccc(C(F)(F)F)cc2)C1` (stereo not given), the cell number change came out at 4.12%.
On to `COc1cc2c(c(OC)c1)C(c1ccncc1)CC(=O)N2` (stereo not given), for which the AC50 runs as follows: under setting [2], 6.51 µM [rising, single point]; under setting [1], 4.61 µM [falling, partial curve, poor fit].
Consider `COc1ccc(C(F)(F)F)cc1N/C=C\c1nnnn1-c1ccc(C)cc1`, for which the cell number change is 6.94%.
In the case of `COc1ccc(OCc2nn[nH]n2)cc1`, the cell number change amounted to 26.7%. The concentration at half-maximal activity (AC50) under setting [1] is 29.1 µM [rising, single point].
Regarding `Cc1[nH]c2ccccc2c1SCC(=O)NNC(=O)Nc1ccc(OC(F)(F)F)cc1`, under setting [2], the AC50 is 6.51 µM [falling, single point].
As for `CCCCN(C(=O)C1CC(=O)N(c2ccc3c(c2)OCCO3)C1)c1c(N)n(CC(C)C)c(=O)[nH]c1=O` (stereo not given), the cell number change is -63.4%. The AC50 under setting [2] was 20.6 µM [falling, single point]. Moreover, the concentration at half-maximal activity (AC50) under setting [1] is 2.06 µM [falling, partial curve, poor fit].
As to `COc1cccc(CNC(=O)c2cccc(Br)c2)c1`, the AC50 by setting is: under setting [2], 2.59 µM [falling, partial curve]; under setting [1], 0.731 µM [falling, partial curve, poor fit].
Regarding `COc1cc(C(c2nnnn2C(C)(C)C)N2CCN(c3nc4ccccc4s3)CC2)ccc1O` (stereo not given), the cell number change was determined as 0.407%.
Regarding `COc1ccc(C(=O)COC(=O)CCn2nnc(-c3cccc(O)c3OC)n2)cc1`, the cell number change is 3.3%.
On to `CCOC(=O)C1=C(C)Nc2ccccc2N=C1NC(=O)c1cccc(S(=O)(=O)NCc2ccccc2)c1`, for which the cell number change came out at 41.8%. In addition, the AC50 under setting [2] was 2.91 µM [rising, full curve]. Further, the half-maximal activity concentration (AC50) under setting [1] is 2.91 µM [rising, partial curve].
For `N#CCC(=O)N/N=C/c1ccc(OC2CSC2)cc1`, the cell number change was determined as 22.9%. Further, the AC50 under setting [1] is 5.17 µM [rising, full curve, poor fit].
As to `COc1ccc(C)cc1NC(=O)COC(=O)c1ccc(OCc2ccc(Cl)cc2Cl)c(OC)c1`, the cell number change stood at 29.7%.
Regarding `O=[N+]([O-])CC(=Nc1ccc(F)cc1)N/N=C\c1oc(O)c2ccccc12`, the cell number change amounted to 13.7%. The AC50 under setting [1] is 6.51 µM [rising, full curve, poor fit].
In the case of `O=C(NCc1ccccn1)c1ccc2c(c1)N(Cc1ccccc1)CCS2`, the cell number change is -37.2%.
For `Cc1[nH]c2ccccc2c1N=Nc1ccc(F)cc1`, the cell number change was -131%. Also, the half-maximal activity concentration (AC50) under setting [2] is 29.1 µM [falling, partial curve].
As to `COc1ccc(NC(=O)c2ccc(Cl)nc2)cc1S(=O)(=O)N1CCOCC1`, the cell number change came out at 20.1%. Further, the half-maximal activity concentration (AC50) under setting [1] is 2.59 µM [falling, single point].
Turning to `Cc1cc(C)n(CCNC(=O)C2CCC(=O)N(CCc3cccc(F)c3)C2)n1` (stereo not given), the cell number change was found to be 3.23%. In addition, the AC50 under setting [1] was 32.6 µM [falling, single point].
For `COc1ccc(NS(=O)(=O)c2ccc(N/N=C/c3ccc(N4CCOCC4)cc3)c([N+](=O)[O-])c2)cc1`, the cell number change was -33.3%. Besides, the AC50 under setting [2] is 3.26 µM [falling, full curve]. Moreover, the AC50 under setting [1] was 5.8 µM [falling, full curve].
With `CN1CCN(C(=S)NC(=O)c2ccc(C(C)(C)C)cc2)CC1`, the cell number change is -1.49%. Further, under setting [1], the AC50 was 6.51 µM [falling, single point].
In the case of `Cc1cc(OCCCC(=O)NC2=NCCS2)ccc1Cl`, the cell number change was found to be 18.2%. The AC50 under setting [1] is 29.1 µM [rising, single point].
Take `O=C(COc1ccc(-n2cnnn2)cc1)Nc1ccc(F)c(F)c1F`: the cell number change was -45.1%. Under setting [2], the AC50 is 29.1 µM [falling, single point]. Moreover, under setting [1], the AC50 is 0.461 µM [rising, full curve, poor fit].
Take `Cc1nnc(SCCn2c(N3CC(C)CC(C)C3)nc3c2c(=O)[nH]c(=O)n3C)s1` (stereo not given): the cell number change was determined as 3.17%. The AC50 under setting [1] is 1.84 µM [rising, partial curve, poor fit].
As to `COc1ccc(NC(=O)CSc2nc3c(cc2C#N)CN(C)CC3)cc1`, the cell number change was found to be 16.7%. Also, under setting [2], the AC50 was 1.03 µM [rising, full curve, poor fit].
For `O=C(COc1ccccc1Cl)Nc1cccc(S(=O)(=O)N2CCCC2)c1`, the cell number change was -32.5%. For the same molecule, the AC50 under setting [2] is 29.1 µM [falling, single point]. The AC50 under setting [1] was 0.92 µM [rising, full curve, poor fit].
`O=C(c1cccc(NC2=NC3CS(=O)(=O)CC3S2)c1)N1CCN(c2ncccn2)CC1` (stereo not given): the cell number change was -8.93%. For the same molecule, the AC50 under setting [1] was 0.0651 µM [falling, full curve, poor fit].
`CCOC(=O)C1Cn2c(nc3c(c2=O)C(C)(CC)Cc2ccccc2-3)S1` (stereo not given): the cell number change was -20.8%. For the same molecule, the AC50 under setting [1] was 2.06 µM [rising, partial curve].
Consider `COCCNC(=O)c1ccc(S(=O)(=O)N2CCCc3ccccc32)cc1`, for which the cell number change is 8.7%. Moreover, the AC50 under setting [1] is 29.1 µM [rising, single point].
In the case of `CC(=O)Nc1ccc(S(=O)(=O)Nc2nnc(C(C)C)s2)cc1`, the cell number change was -8.06%. Also, the AC50 under setting [1] was 18.4 µM [falling, partial curve].
As to `Cc1nc(N2CCN(c3ccccn3)CC2)c2c(C)c(C(=O)Nc3ccc(Cl)cc3)sc2n1`, the cell number change amounted to 54.1%. For the same molecule, the AC50 under setting [2] was 29.1 µM [rising, single point]. For the same molecule, the AC50 under setting [1] was 8.2 µM [falling, single point].
As for `CC(=O)N1CCc2cc(S(=O)(=O)NC(C)c3ccccc3)ccc21` (stereo not given), the cell number change was -21.3%. Also, the concentration at half-maximal activity (AC50) under setting [2] is 1.46 µM [falling, full curve].
Consider `CC(C)n1nnc(-c2ccc(OCc3ccccc3F)cc2)n1`, for which the cell number change stood at 16.4%. Further, the AC50 under setting [2] was 0.461 µM [rising, full curve, poor fit].
Regarding `Cc1cc(N2CCN(c3ccccc3)CC2)nc(-n2nc(C)cc2C)n1`, the cell number change is -14.4%. The AC50 under setting [1] was 7.31 µM [falling, single point].
`O=C(NC1CCCc2ccccc21)C1CCCN(S(=O)(=O)c2cnc[nH]2)C1` (stereo not given): the cell number change is -16.6%. The AC50 under setting [1] was 0.00731 µM [rising, full curve, poor fit].
Consider `Cc1ccc(CCC(=O)Nc2ccc(Br)cc2)o1`, for which the cell number change is -26.9%.
As for `c1ccc(NC2=NCCN2CC2CCC2)cc1`, the cell number change is -18.5%. Moreover, the AC50 under setting [1] is 0.411 µM [falling, single point].
Consider `C/C(=N\NC(=O)CNC(=O)c1ccccc1Br)c1ccco1`, for which the cell number change was -1.59%. Moreover, the AC50 under setting [1] was 0.58 µM [falling, single point].
In the case of `O=S(=O)(c1cccc(F)c1)N1CCN(C(=S)NCC2CCCO2)CC1` (stereo not given), the cell number change was determined as 10.4%. Also, the AC50 under setting [1] was 11.2 µM [rising, partial curve].
Regarding `CCOc1ccc(N2C(=O)c3ccccc3C2=O)cc1`, the cell number change turned out to be 7.37%.
In the case of `COCCn1c(=O)[nH]c2cc(C(=O)N3CCN(c4ccc(Cl)cc4)CC3)ccc2c1=O`, the cell number change was -1.8%. Moreover, the AC50 under setting [1] was 0.651 µM [falling, partial curve, poor fit].
On to `NNC(=O)Cn1nc(-c2ccccc2)c2ccccc2c1=O`, for which the cell number change was 13.5%. Besides, the AC50 under setting [1] was 0.231 µM [rising, full curve, poor fit].
Turning to `Nc1cc(C(=O)O)ccc1N1CCCCCC1`, the cell number change is -13.6%. For the same molecule, the AC50 under setting [1] is 2.06 µM [falling, full curve, poor fit].
For the molecule `C=CCOc1ccccc1C1NC(=O)NC(C)=C1C(=O)NCc1ccccc1` (stereo not given), the cell number change turned out to be 73.7%. Besides, the AC50 under setting [2] was 11.6 µM [rising, partial curve]. The AC50 under setting [1] was 2.31 µM [rising, partial curve].
Turning to `CC(C)CCNC(=O)C1CCN(c2nnc(-n3cccc3)s2)CC1`, the cell number change turned out to be 21.7%. The half-maximal activity concentration (AC50) under setting [1] was 29.1 µM [rising, single point].
As for `CCCC(=O)Nc1sc2c(c1C#N)CCCC2`, the AC50 is 5.8 µM [rising, single point] under setting [2] and 6.51 µM [rising, single point] under setting [1].
On to `O=C(CS(=O)(=O)Cc1ccccc1)N1CCN(Cc2ccc3c(c2)OCO3)CC1`, for which the cell number change was -9.2%. Under setting [1], the AC50 was 2.31 µM [rising, partial curve, poor fit].
As to `O=C(NNC(=O)C1C2C=CC(C2)C1C(=O)O)c1cc(Cl)ccc1O` (stereo not given), the cell number change is -3.97%. For the same molecule, the AC50 under setting [2] was 0.13 µM [falling, full curve, poor fit].
As to `COc1ccc(C(=O)N/N=C(\N)c2cc3ccccc3oc2=O)cc1`, the AC50 under setting [2] is 2.91 µM [rising, single point].
As to `Cc1ccc(Cn2ccc(NC(=O)C3C4CCC(C4)C3C(=O)O)n2)cc1` (stereo not given), the cell number change was 43.8%. The AC50 under setting [2] was 29.1 µM [rising, single point]. Moreover, the AC50 under setting [1] is 0.00517 µM [falling, full curve, poor fit].
Regarding `COc1ccc(C)cc1N(CC(=O)NCCSCc1cccc(Cl)c1)S(C)(=O)=O`, the cell number change was -7.3%. For the same molecule, under setting [1], the half-maximal activity concentration (AC50) was 0.0058 µM [falling, full curve, poor fit].
As to `O=C(CSC(=S)N1CCSCC1)c1ccccc1`, the cell number change was found to be 76.7%.
As to `CCCC(=O)Nc1ccc(C(=O)n2nnc3ccccc32)cc1`, the cell number change is -135%. The AC50 under setting [2] was 23.1 µM [falling, partial curve]. Besides, the AC50 under setting [1] was 29.1 µM [falling, single point].
As to `CCc1nc2nc(C)c(NS(=O)(=O)c3ccc(Cl)s3)c(=O)n2[nH]1`, the cell number change was -9.52%.
Take `O=C(COC(=O)c1cc([N+](=O)[O-])ccc1NCCO)c1ccccc1`: the cell number change was 11.2%. For the same molecule, the AC50 under setting [1] is 11.6 µM [rising, partial curve, poor fit].
Take `CC(=O)c1ccc(NC(=O)c2cccs2)cc1`: the cell number change is -20.2%. For the same molecule, the AC50 under setting [2] is 0.731 µM [falling, full curve].
